From paper PMC12235857
Results are given in words; binding and its absence hold for the method and conditions named. In cells and extracts the contact can be indirect. Some binding calls cover weakened binding; strength is not graded here.

The chains behind the UniProt entries cited, without tags or fusion partners.
UniProt P19338: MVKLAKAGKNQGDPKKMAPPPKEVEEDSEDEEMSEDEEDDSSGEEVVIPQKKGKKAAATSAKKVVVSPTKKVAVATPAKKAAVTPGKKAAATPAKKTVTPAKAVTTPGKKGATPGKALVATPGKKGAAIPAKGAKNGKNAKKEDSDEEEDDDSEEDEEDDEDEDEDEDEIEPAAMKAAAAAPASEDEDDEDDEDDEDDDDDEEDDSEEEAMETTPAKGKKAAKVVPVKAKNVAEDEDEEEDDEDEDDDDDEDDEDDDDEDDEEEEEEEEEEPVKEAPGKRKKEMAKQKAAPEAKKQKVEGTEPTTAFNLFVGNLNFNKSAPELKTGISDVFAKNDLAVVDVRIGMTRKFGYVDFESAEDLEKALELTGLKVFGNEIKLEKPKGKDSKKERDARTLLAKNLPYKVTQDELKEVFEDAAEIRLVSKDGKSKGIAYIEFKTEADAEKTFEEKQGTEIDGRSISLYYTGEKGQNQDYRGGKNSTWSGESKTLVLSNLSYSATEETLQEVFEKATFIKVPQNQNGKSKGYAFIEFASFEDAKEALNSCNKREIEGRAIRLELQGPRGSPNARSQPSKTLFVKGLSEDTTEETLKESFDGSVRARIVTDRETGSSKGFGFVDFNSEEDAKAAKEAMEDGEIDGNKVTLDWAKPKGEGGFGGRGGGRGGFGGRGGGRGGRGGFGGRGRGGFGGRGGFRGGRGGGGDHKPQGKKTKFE

Experiments:
[1] = molecular target: nucleolin (NCL) (human (endogenous in B cells from PBMCs)) (UniProt P19338); experiment: co-IP; B cells treated with PTN recombinant protein for different times; immunoprecipitation and Western blotting of cytoplasmic and nuclear fractions; which protein was precipitated is not told
[2] = molecular target: T1, ATF2 (human (endogenous in B cells from PBMCs)), P15336; experiment: co-IP; control and PTN recombinant protein-treated B cells; immunoprecipitation and Western blotting; which protein was precipitated is not clearly told; details: remark: other sources report otherwise
T1 chain: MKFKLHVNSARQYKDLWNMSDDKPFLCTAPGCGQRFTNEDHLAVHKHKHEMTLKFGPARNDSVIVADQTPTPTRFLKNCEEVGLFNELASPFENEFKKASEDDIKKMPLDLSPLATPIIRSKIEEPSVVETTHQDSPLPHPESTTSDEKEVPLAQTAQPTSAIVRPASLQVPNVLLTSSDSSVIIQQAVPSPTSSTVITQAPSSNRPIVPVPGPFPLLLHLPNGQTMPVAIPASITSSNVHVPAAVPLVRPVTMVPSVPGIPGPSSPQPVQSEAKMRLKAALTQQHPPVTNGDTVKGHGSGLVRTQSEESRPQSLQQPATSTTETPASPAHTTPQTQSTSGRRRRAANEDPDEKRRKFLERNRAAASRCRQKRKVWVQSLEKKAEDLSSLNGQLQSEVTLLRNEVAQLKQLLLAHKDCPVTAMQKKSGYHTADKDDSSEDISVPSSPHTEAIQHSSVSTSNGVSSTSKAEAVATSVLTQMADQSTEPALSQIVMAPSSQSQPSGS

Row | Binder | binding [1] | binding [2]
1 | recombinant PTN (pleiotrophin; heparin-binding growth factor PTN) (ligand, UniProt P21246 33-168) GKKEKPEKKVKKSDCGEWQWSVCVPTSGDCGLGTREGTRTGAECKQTMKTQRCKIPCNWKKQFGAECKYQFQAWGECDLNTALKTRTGSLKRALHNAECQKTVTISKPCGKLTKPKPQAESKKKKKEGKKQEKMLD | binds | 
2 | c-Jun, P05412 1-331 (protein) MTAKMETTFYDDALNASFLPSESGPYGYSNPKILKQSMTLNLADPVGSLKPHLRAKNSDLLTSPDVGLLKLASPELERLIIQSSNGHITTTPTPTQFLCPKNVTDEQEGFAEGFVRALAELHSQNTLPSVTSAAQPVNGAGMVAPAVASVAGGSGSGGFSASLHSEPPVYANLSNFNPGALSSGGGAPSYGAAGLAFPAQPQQQQQPPHHLPQQMPVQHPRLQALKEEPQTVPEMPGETPPLSPIDMESQERIKAERKRMRNRIAASKCRKRKLERIARLEEKVKTLKAQNSELASTANMLREQVAQLKQKVMNHVNSGCQLMLTQQLQTF |  | binds
